Data taken from PubChem BioAssay (NCATS).
The shares of active, inactive and inconclusive entries below differ from those in the screen. For part of these data: Potencies beside an inconclusive call are fits to weak or partial responses and may not hold up. Activity calls are given as the source filed them. Unless noted, calls come from the whole dose curve; as a rule, active = well fitted curve in the direction sought with a large enough effect; inconclusive = small, poorly fitted or top-dose-only effect, or another doubt; inactive = no such curve, though single readings can be large; an effect the other way counts as inactive or inconclusive.

Sequences of proteins named here, by UniProt entry; tags and fusion partners are left off. A change or cut given only in a name is not applied to a line headed by its entry.
UniProt P08684, whole entry, looked up: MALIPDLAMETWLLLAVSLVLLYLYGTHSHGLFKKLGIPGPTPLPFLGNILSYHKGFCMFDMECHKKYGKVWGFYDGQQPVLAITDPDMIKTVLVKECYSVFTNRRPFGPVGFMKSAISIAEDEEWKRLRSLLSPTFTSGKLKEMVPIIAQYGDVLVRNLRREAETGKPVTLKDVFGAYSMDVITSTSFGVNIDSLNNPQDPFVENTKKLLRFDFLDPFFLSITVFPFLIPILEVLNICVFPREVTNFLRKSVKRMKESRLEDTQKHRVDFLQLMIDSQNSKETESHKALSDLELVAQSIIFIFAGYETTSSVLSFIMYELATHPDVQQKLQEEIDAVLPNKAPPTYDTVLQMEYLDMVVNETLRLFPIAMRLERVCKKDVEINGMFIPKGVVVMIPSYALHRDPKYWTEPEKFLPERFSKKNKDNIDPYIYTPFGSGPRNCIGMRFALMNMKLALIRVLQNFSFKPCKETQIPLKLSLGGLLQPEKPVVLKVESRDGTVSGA
UniProt P10275: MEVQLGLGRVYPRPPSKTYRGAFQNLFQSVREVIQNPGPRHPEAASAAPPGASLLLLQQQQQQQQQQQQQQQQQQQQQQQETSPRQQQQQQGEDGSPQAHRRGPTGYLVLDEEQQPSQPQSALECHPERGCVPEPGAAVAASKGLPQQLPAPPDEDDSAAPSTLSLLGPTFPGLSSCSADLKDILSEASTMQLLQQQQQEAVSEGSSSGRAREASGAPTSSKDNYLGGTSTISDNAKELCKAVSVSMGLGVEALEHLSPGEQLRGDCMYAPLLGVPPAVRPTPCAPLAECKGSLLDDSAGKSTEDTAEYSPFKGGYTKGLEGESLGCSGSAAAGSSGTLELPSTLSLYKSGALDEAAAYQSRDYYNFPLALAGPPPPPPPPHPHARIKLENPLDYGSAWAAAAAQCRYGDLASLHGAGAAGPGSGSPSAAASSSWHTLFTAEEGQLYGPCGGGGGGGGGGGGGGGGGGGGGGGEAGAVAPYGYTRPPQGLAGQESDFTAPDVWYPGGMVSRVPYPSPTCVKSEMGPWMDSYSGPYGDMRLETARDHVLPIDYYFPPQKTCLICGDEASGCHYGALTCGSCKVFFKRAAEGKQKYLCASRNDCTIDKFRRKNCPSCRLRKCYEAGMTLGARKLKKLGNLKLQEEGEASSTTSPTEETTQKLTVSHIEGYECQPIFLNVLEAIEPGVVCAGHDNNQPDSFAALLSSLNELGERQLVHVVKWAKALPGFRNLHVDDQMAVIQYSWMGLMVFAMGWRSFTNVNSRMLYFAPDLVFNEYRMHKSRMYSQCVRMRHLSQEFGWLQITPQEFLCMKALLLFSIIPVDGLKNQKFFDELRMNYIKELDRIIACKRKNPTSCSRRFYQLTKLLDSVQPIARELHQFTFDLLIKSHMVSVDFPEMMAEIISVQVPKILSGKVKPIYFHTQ
UniProt Q03181: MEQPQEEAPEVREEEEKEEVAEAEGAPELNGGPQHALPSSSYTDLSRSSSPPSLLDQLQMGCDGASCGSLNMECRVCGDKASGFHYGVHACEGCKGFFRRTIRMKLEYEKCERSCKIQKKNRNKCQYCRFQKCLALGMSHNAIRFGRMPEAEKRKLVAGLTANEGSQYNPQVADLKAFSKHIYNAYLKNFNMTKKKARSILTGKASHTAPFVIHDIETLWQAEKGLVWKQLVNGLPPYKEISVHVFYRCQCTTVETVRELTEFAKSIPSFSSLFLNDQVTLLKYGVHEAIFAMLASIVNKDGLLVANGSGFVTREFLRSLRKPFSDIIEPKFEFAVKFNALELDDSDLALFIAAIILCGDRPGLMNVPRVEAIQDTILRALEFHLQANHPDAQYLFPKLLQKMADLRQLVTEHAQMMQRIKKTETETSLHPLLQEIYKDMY
UniProt P19793: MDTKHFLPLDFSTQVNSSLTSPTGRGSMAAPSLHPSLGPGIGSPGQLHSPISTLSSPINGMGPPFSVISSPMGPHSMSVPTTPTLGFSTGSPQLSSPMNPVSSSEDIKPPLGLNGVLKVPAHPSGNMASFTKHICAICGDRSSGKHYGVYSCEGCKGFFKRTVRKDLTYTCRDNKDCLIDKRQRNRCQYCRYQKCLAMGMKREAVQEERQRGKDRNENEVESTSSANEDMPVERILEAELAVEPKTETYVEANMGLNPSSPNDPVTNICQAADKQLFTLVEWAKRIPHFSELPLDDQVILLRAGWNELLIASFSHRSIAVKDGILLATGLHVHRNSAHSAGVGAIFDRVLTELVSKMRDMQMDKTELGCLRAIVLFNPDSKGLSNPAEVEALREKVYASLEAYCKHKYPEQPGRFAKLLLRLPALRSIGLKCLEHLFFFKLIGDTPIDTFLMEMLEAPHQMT

What was measured:
[1] = Cellular Toxicity (caspase-3) MRC-5 (AID 659); details: MRC-5 cells, luminescence, normalized: DMSO 0%, 10 µM staurosporine 100%; at 91.7 µM (top of the series)
Outline: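 Concentration-dependent caspase 3/7 activation is measured in human normal lung fibroblasts (MRC-5) following 16-hour treatment. AC50 values come from standard Hill-equation modeling of luminescence normalized to DMSO and 10 uM staurosporine.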

[2] = target: Cytochrome P450 3A4 (Homo sapiens) (UniProt P08684); assay: qHTS Assay for Inhibitors and Substrates of Cytochrome P450 3A4 (AID 884); note: % is set by controls: 0 for no effect and ±100 for the full control effect; nearly all actives have a fitted effect of over 50% in size
Outline: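 20 nM human CYP3A4 with 25 uM Luciferin-PPXE (at KM) in 200 mM KPO4, preincubated 10 min with compound; NADPH regeneration started a 60 min RT reaction. Luciferin detected by luminescence, normalized to 57 uM ketoconazole as full inhibition.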

[3] = Cell Viability - LYMP2-021 (AID 974);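 note: compound exposure lasts 24 hours at 37 °C; % is set by controls: 0 for no effect and ±100 for the full control effect; nearly all actives have a fitted effect of over 55% in size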
Outline: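 Concentration-response cytotoxicity in a human lymphoblastoid line: 24 hr treatment at 37 C in complete culture medium, tetraoctylammonium bromide as positive control, luminescent ATP quantitation as viability measure.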

[4] = target: Androgen receptor (Homo sapiens) (UniProt P10275); assay: qHTS assay for small molecule agonists of androgen receptor signaling (AID 588515; active = well fitted curve in the direction sought with a large enough effect in the signal ratio, with a control signal flat; inconclusive = small, poorly fitted or top-dose-only effect, or effect the other way, or a change in a side signal; inactive = no such curve, though single readings can be large or run the other way; the % refers to the signal ratio; note: % is set by controls: 0 for no effect and ±100 for the full control effect); details: AR-UAS-bla HEK293, beta-lactamase ratio, agonist 16 h; activation: hits give high values
Outline: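 EC50 and efficacy came from Hill fits of titrations (up to 92 uM) normalized to 30 nM R1881 as 100% and DMSO as 0%. Compound exposure was 16 h at 37 C on AR-UAS-bla HEK293 cells, with a 405/460/530 nm CCF4 fluorescence read.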

[5] = target: Peroxisome proliferator-activated receptor delta (Homo sapiens) (UniProt Q03181); assay: qHTS assay for small molecule antagonists of peroxisome proliferator-activated receptor delta signaling (AID 588535; active = well fitted inhibition curve with a large enough effect in the signal ratio, with a control signal flat, not every such curve was filed as active; inconclusive = small, poorly fitted or top-dose-only effect, or effect the other way, or a change in a side signal; inactive = no such curve, though single readings can be large or run the other way; the % refers to the signal ratio); details: HEK293T PPARd-UAS-bla, beta-lactamase FRET ratio, 18 h; activity change, negative = inhibition: at 76.7 µM (top of the series) unless noted
Outline: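 Cell-based beta-lactamase assay in antagonist mode: 4000 HEK293T PPAR-delta-UAS-bla cells per well, 5 hr preincubation then 18 hr compound incubation at 37 C. IC50 obtained by Hill equation fitting.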

[6] = target: Peroxisome proliferator-activated receptor gamma (Homo sapiens) (UniProt P37231); assay: qHTS assay for small molecule antagonists of peroxisome proliferator-activated receptor gamma signaling (AID 588537; active = well fitted inhibition curve with a large enough effect in the signal ratio, with a control signal flat, not every such curve was filed as active; inconclusive = small, poorly fitted or top-dose-only effect, or effect the other way, or a change in a side signal; the % refers to the signal ratio; note: potency is the fitted concentration of half-maximal effect;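 for activity, negative = inhibition: reporter cells co-stimulated with 50 nM rosiglitazone agonist during compound treatment; % of control where 0% means no effect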); details: HEK293 PPARg-UAS-bla, beta-lactamase ratio, antagonist mode; activity, negative = inhibition: at 76.8 µM (top of the series)
Outline: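 Inhibitors of agonist-stimulated UAS-bla reporter activity were sought in HEK293 cells; rosiglitazone (50 nM) defined full signal and DMSO baseline. Curves fitted to Hill model gave IC50 and efficacy.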

[7] = qHTS assay for small molecule agonists of the antioxidant response element (ARE) signaling pathway (AID 651741; active = well fitted activation curve with a large enough effect in the signal ratio; inconclusive = small, poorly fitted or top-dose-only effect, or effect the other way, or a change in a side signal; the % refers to the signal ratio; note: potency is the fitted concentration of half-maximal effect; for activation: % of control where 0% means no effect); details: HepG2 ARE-bla reporter, beta-lactamase FRET ratio, 16 h; activation: at 96 µM (top of the series) unless noted
Outline: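 Seeding 2,000 ARE-bla HepG2 cells per well preceded a 5 h incubation at 37 C/5% CO2 and a 16 h compound exposure at 37 C. Beta-lactamase reporter activity was then quantified by fluorescence after 2 h with LiveBLAzer B/G FRET substrate.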

[8] = qHTS assay to identify small molecules that stimulate interleukin-8 (IL-8) secretion (AID 651758; active = well fitted activation curve with a large enough effect in the signal ratio; inconclusive = small, poorly fitted or top-dose-only effect, or effect the other way, or a change in a side signal; the % refers to the signal ratio; note: 0% is about no effect); details: HTRF ratio (665/615); activation: at 92.2 µM (top of the series)
Outline: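 Secreted IL-8 measured by TR-FRET sandwich (cryptate and XL665 antibodies) from THP-1 cells exposed to compound overnight (16 hrs, 37 C).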

[9] = qHTS assay for small molecule antagonists of the retinoid-related orphan receptor gamma (ROR-gamma) signaling pathway - cell viability counter screen (AID 720652; active = well fitted curve in the direction sought with a large enough effect in the repeat runs; inconclusive = weak or mixed curves; inactive = no such curve, though single readings can be large; an effect the other way counts as inactive or inconclusive;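 note: CHO reporter cells with doxycycline-induced ROR-gamma expression; compound exposure lasted 16 hr before ATP read; % is set by controls: 0 for no effect and ±100 for the full control effect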)
Outline: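 Cytotoxicity is quantified via intracellular ATP (CellTiter-Glo luminescence) in doxycycline-induced CHO ROR response element-luciferase reporter cells treated with compound for 16 hr at 37 C, 5% CO2.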

[10] = target: Androgen receptor (Homo sapiens) (UniProt P10275); assay: qHTS assay for small molecule antagonists of androgen receptor signaling (AID 588516; active = well fitted curve in the direction sought with a large enough effect in the signal ratio, with a control signal flat, not every such curve was filed as active; inconclusive = small, poorly fitted or top-dose-only effect, or effect the other way, or a change in a side signal; inactive = no such curve, though single readings can be large or run the other way; the % refers to the signal ratio; note: % is set by controls: 0 for no effect and ±100 for the full control effect); details: AR-UAS-bla HEK293, beta-lactamase ratio, antagonist mode, 16 h; activity change, negative = inhibition: at 76.8 µM (top of the series)
Outline: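 Cells were plated and incubated 5 h, compounds added in titration, then R1881 (10 nM final) as agonist. After 16 h at 37 C, CCF4 substrate was loaded for 2 h at room temperature and fluorescence measured.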

[11] = target: Glucocorticoid receptor (Homo sapiens) (UniProt P04150); assay: qHTS assay for small molecule antagonists of glucocorticoid receptor signaling (AID 588533; active = well fitted inhibition curve with a large enough effect in the signal ratio, with a control signal flat, not every such curve was filed as active; inconclusive = small, poorly fitted or top-dose-only effect, or effect the other way, or a change in a side signal; the % refers to the signal ratio;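 note: cells stimulated with 2 nM dexamethasone as agonist; % is set by controls: 0 for no effect and ±100 for the full control effect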); details: HeLa MMTV-bla, GRE beta-lactamase ratio, antagonist mode, 18 h; activity change, negative = inhibition: at 76.8 µM (top of the series) unless noted
[12] = target: Peroxisome proliferator-activated receptor gamma (Homo sapiens) (UniProt P37231); assay: qHTS assay for small molecule agonists of peroxisome proliferator-activated receptor gamma signaling (AID 588536; active = well fitted curve in the direction sought with a large enough effect in the signal ratio, with a control signal flat, not every such curve was filed as active; inconclusive = small, poorly fitted or top-dose-only effect, or effect the other way, or a change in a side signal; inactive = no such curve, though single readings can be large or run the other way; the % refers to the signal ratio;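 note: 0% = DMSO basal wells and 100% = rosiglitazone at 2 µM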); details: HEK293 PPARg-UAS-bla, beta-lactamase ratio, 16 h; activation: at 76.7 µM (top of the series), percent of rosiglitazone response, DMSO as zero unless noted
Outline: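 Test agents, titrated, stimulated HEK293 UAS-bla cells overnight (16 h, 37 C). Substrate CCF4 was then added for two hours at room temperature before fluorescence reading.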

[13] = target: Retinoic acid receptor RXR-alpha (Homo sapiens) (UniProt P19793); assay: qHTS assay for small molecule agonists of retinoid X receptor alpha signaling (AID 588544; calls by dose curve; note: potency is the fitted concentration of half-maximal effect); details: HEK293T RXRa-UAS-bla, beta-lactamase reporter, 18 h; activation: at 76.7 µM (top of the series) unless noted

SMILES: O=C(Cl)/C=C/C(=O)Cl
- caspase-3 activation [1]: inactive: 1.92%
- Potency [2]: inactive
- Potency [3]: inactive
- activation [4]: inactive: 8.8%
- activity change, negative = inhibition [5]: inconclusive: -17.8%
- Potency [6]: inactive
- Potency [7]: inactive
- activation [8]: inconclusive: -3.07%
- Potency [9]: inactive

SMILES: CC(C)=C[C@@H]1[C@@H](C(=O)OCN2C(=O)C3=C(CCCC3)C2=O)C1(C)C
- activity change, negative = inhibition [10]: inconclusive: -37.8%
- activity change, negative = inhibition [11]: inconclusive: 21.6%
- activation [12]: inconclusive: -12.1%
- Potency [6]: inconclusive: 35.5 µM [inhibitor, partial curve]
- Potency [13]: inconclusive: 31.6 µM [inhibitor, partial curve]
- Potency [7]: active: 54.5 µM
